The results in this text go back to the supplement of paper PMC4840960.

Counter-ions that a name gives are not always drawn. ± gives the standard deviation of the averaged measurements. This is one part of the list. Plates or batches differ in their baseline, so values are only roughly comparable.

The first test concerns E18 rat cortical neuron-glia co-culture. The test can be described thus: total nuclei (DAPI) / Olig2+ nuclei (ratio); higher = more depletion of OPC/OL lineage cells. The settings on record: 1 µM; treatment time: 8 days (DIV5-DIV13). Here is the method:
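Primary E18 rat cortical co-cultures (neurons, astrocytes, OPC/OLs) in 96-well plates. NIH Clinical Collection compounds were added on DIV5 in myelination medium at 5 and 1 µM for 8 days, then cells were fixed on DIV13 and stained for MBP, Olig2 and DAPI. Myelination (contiguous aligned MBP fiber length per Olig2+ nucleus) was normalised to plate controls (0.1% DMSO = 0, 1 µM DAPT = 100) as % of DAPT. Each value is from duplicate wells with 4 image fields each. Fiber length/MBP is the fiber score divided by the MBP differentiation score; DAPI/Olig2 is the ratio of total to Olig2+ nuclei.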
In the case of `COc1ccc2cc([C@H](C)C(=O)O)ccc2c1` [Naproxen], the total nuclei is 2.79.

`O=C(c1ccc(F)cc1)C1CCN(CCn2c(=S)[nH]c3ccccc3c2=O)CC1` [Altanserin]: the total nuclei came out at 2.86.

For `CN1CCC(=C2c3ccccc3CCc3sccc32)CC1` [Pizotyline], the total nuclei turned out to be 4.62.

Regarding `Cc1c(O)c(=O)ccn1C` [Deferiprone], the total nuclei was determined as 4.2.

As for `NC(=O)N1c2ccccc2C=Cc2ccccc21` [Carbamazepine], the total nuclei stood at 2.32.

With `C=C(CC)C(=O)c1ccc(OCC(=O)O)c(Cl)c1Cl` [Ethacrynic Acid], the total nuclei came out at 20.

Consider `CC[C@@H](CO)NCCN[C@@H](CC)CO` [Ethambutol], for which the total nuclei was 3.7.

In the case of `CC(COc1ccccc1)NC(C)C(O)c1ccc(O)cc1` (stereo not given) [Isoxsuprine], the total nuclei was found to be 3.64.

`CCCCC(=O)N(Cc1ccc(-c2ccccc2-c2nnn[nH]2)cc1)[C@H](C(=O)O)C(C)C` [Valsartan]: the total nuclei amounted to 2.7.

Take `C[C@H](CCC(=O)O)[C@H]1CC[C@H]2[C@@H]3[C@H](O)C[C@@H]4C[C@H](O)CC[C@]4(C)[C@H]3CC[C@]12C` [Chenodeoxycholic Acid]: the total nuclei was 3.68.

As for `Clc1ccc2c(c1)C(N1CCNCC1)=Nc1ccccc1O2` [Amoxapine], the total nuclei is 2.78.

On to `CCOC(=O)N1CCC(=C2c3ccc(Cl)cc3CCc3cccnc32)CC1` [Loratadine], for which the total nuclei was 3.87.

Turning to `CC[C@@H]1C(=O)OC[C@@H]1Cc1cncn1C` [Pilocarpine], the total nuclei came out at 3.9.

As for `C=CC1=C(C(=O)O)N2C(=O)[C@@H](NC(=O)/C(=N\O)c3csc(N)n3)[C@H]2SC1` [Cefdinir], the total nuclei is 2.96.

In the case of `CC#C[C@]1(O)CC[C@H]2[C@@H]3CCC4=CC(=O)CCC4=C3[C@@H](c3ccc(N(C)C)cc3)C[C@@]21C` [Mifepristone], the total nuclei was 3.17.

For the compound `CC(CN1c2ccccc2Sc2ccccc21)N(C)C` (stereo not given) [Promethazine], the total nuclei worked out at 3.

Take `CCCCc1nc(Cl)c(CO)n1Cc1ccc(-c2ccccc2-c2nnn[nH]2)cc1` [Losartan]: the total nuclei came out at 3.72.

Turning to `CN(C)CCCC1(c2ccc(F)cc2)OCc2cc(C#N)ccc21` (stereo not given) [Citalopram], the total nuclei amounted to 3.59 ± 0.91.

Turning to `OCCOCCN1CCN(C(c2ccccc2)c2ccc(Cl)cc2)CC1` (stereo not given) [Hydroxyzine pamoate salt], the total nuclei came to 3.88.

`O=C1c2c(O)cc(O)cc2O[C@H](c2ccc(O)c(O)c2)[C@H]1O` [Distylin]: the total nuclei came out at 4.67.

Still in this test, the particulars now being: 5 µM; treatment time: 8 days (DIV5-DIV13).
As for `COc1ccc2cc([C@H](C)C(=O)O)ccc2c1` [Naproxen], the total nuclei is 2.8.

As to `O=C(c1ccc(F)cc1)C1CCN(CCn2c(=S)[nH]c3ccccc3c2=O)CC1` [Altanserin], the total nuclei is 2.8.

Turning to `CN1CCC(=C2c3ccccc3CCc3sccc32)CC1` [Pizotyline], the total nuclei came to 5.4.

As for `Cc1c(O)c(=O)ccn1C` [Deferiprone], the total nuclei was determined as 5.7.

On to `NC(=O)N1c2ccccc2C=Cc2ccccc21` [Carbamazepine], for which the total nuclei worked out at 2.4.

`C=C(CC)C(=O)c1ccc(OCC(=O)O)c(Cl)c1Cl` [Ethacrynic Acid]: the total nuclei was > 40.

Turning to `CC[C@@H](CO)NCCN[C@@H](CC)CO` [Ethambutol], the total nuclei was determined as 3.4.

On to `CC(COc1ccccc1)NC(C)C(O)c1ccc(O)cc1` (stereo not given) [Isoxsuprine], for which the total nuclei was determined as 3.8.

For the compound `CCCCC(=O)N(Cc1ccc(-c2ccccc2-c2nnn[nH]2)cc1)[C@H](C(=O)O)C(C)C` [Valsartan], the total nuclei turned out to be 2.6.

`C[C@H](CCC(=O)O)[C@H]1CC[C@H]2[C@@H]3[C@H](O)C[C@@H]4C[C@H](O)CC[C@]4(C)[C@H]3CC[C@]12C` [Chenodeoxycholic Acid]: the total nuclei stood at 3.6.

As for `Clc1ccc2c(c1)C(N1CCNCC1)=Nc1ccccc1O2` [Amoxapine], the total nuclei turned out to be 3.8.

As to `CCOC(=O)N1CCC(=C2c3ccc(Cl)cc3CCc3cccnc32)CC1` [Loratadine], the total nuclei worked out at 4.3.

For the compound `CC[C@@H]1C(=O)OC[C@@H]1Cc1cncn1C` [Pilocarpine], the total nuclei was determined as 4.8.

For the compound `C=CC1=C(C(=O)O)N2C(=O)[C@@H](NC(=O)/C(=N\O)c3csc(N)n3)[C@H]2SC1` [Cefdinir], the total nuclei stood at 3.1.

Consider `CC#C[C@]1(O)CC[C@H]2[C@@H]3CCC4=CC(=O)CCC4=C3[C@@H](c3ccc(N(C)C)cc3)C[C@@]21C` [Mifepristone], for which the total nuclei was > 40.

As to `CC(CN1c2ccccc2Sc2ccccc21)N(C)C` (stereo not given) [Promethazine], the total nuclei was 4.7.

Turning to `CCCCc1nc(Cl)c(CO)n1Cc1ccc(-c2ccccc2-c2nnn[nH]2)cc1` [Losartan], the total nuclei was > 40.

In the case of `CN(C)CCCC1(c2ccc(F)cc2)OCc2cc(C#N)ccc21` (stereo not given) [Citalopram], the total nuclei came out at 3.87 ± 0.76.

In the case of `OCCOCCN1CCN(C(c2ccccc2)c2ccc(Cl)cc2)CC1` (stereo not given) [Hydroxyzine pamoate salt], the total nuclei was determined as 4.4.

For `O=C1c2c(O)cc(O)cc2O[C@H](c2ccc(O)c(O)c2)[C@H]1O` [Distylin], the total nuclei was determined as 4.2.
